Results reported in PubChem BioAssay AID1347075 (National Center for Advancing Translational Sciences (NCATS), 2019).
About 5,500 (1.4%) of roughly 400,000 compounds were called active. This list was built around the results that the source calls inconclusive (neither active nor inactive); the mix of calls is not that of the screen. Calls come from the whole dose curve; as a rule, active = well fitted cell-killing curve with a large enough effect; inconclusive = small, poorly fitted or top-dose-only effect, or effect the other way; inactive = flat fitted curve, though single readings scatter. Potencies beside an inconclusive call are fits to weak or partial responses and may not hold up.
% is set by controls: 0 for no effect and ±100 for the full control effect; potency is the fitted concentration of half-maximal effect.

Test: qHTS assay for MDR1-selective chemotherapeutics: Primary screen using the parental adenocarcinoma cell KB-3-1; note: nearly all actives have a fitted effect of over 60% in size
Details: KB-3-1 viability, CellTiter-Glo ATP luminescence, 72 h; activity change, negative = cytotoxic: at 46.1 µM (top of the series)
From the text: A prime difficulty in effectively treating cancer is the development of cellular resistance to multiple structurally unrelated anticancer drugs, a phenomenon known as multidrug resistance (MDR). […] Numerous strategies to overcome P-gp-mediated MDR have been explored, including the design of drugs that evade recognition and efflux, and development of inhibitors to block efflux and restore drug accumulation. […] An alternative approach is to exploit resistance by identifying drugs that target MDR cells over the non-resistant parental cells from which they were selected. […] The development of MDR1-selective agents represents a new strategy for resolving multidrug resistance, as it remains a long-standing clinical challenge for cancer chemotherapy.
Our goal is to identify compounds that selectively kill P-gp-expressing MDR cells. We will identify MDR1-selective compounds by comparing toxicity of compounds in the screening library against parental, drug-naive (KB-3-1) adenocarcinoma cells as well as their drug-selected MDR sub-line (KB-V1). The differential toxicity of compounds against these two cell lines will be used to identify MDR1-selective compounds, whose cytotoxicity is potentiated, rather than diminished, by P-gp expression. This assay will be utilized to conduct a quantitative high-throughput screen (qHTS) in collaboration with the NIH Chemical Genomics Center to identify selective agents, and probe hits arising from the screen will be validated using secondary assays and characterized through a well-established follow-up research program. This screen was run against the entire NCGC library collection of about 400,000 compounds.
NIH Molecular Libraries Probe Production Network [MLPCN]
NIH Chemical Genomics Center [NCGC]
PI: Michael Gottesman PhD, National Cancer Institute, NIH
Briefly, 5 microL of media containing either KB-3-1 cells (columns 1-2, 4-48) are dispensed into Greiner white, treated solid-bottom 1536-well assay plates (media-only control is added to column 3). Compounds are then transferred via Kalypsys pin tool equipped with 1536-pin array (10 nL slotted pins, V&P Scientific, San Diego, CA). Following addition of compound, the plates are incubated at 37 degrees C for 72 hours. CellTiter-Glo (2.5 µL/well) is then added, and the plates are read in a ViewLux reader (Perkin-Elmer, clear luminescence filter, 1 second exposure, 1x binning) following a 10 minute incubation. All cells are dispensed in DMEM phenol-red free media containing 10% FBS.
Library plates were screened starting from the lowest and proceeding to the highest concentration. Vehicle-only plates, with DMSO being pin-transferred to columns 5-48, will be inserted uniformly at the beginning and the end of each library in order to monitor and record any shifts in the background, which can be affected by reagent dispensers or loss in enzyme activity over time. Screening data will be corrected, normalized, and concentration-effect relationships will be derived by using publicly-available NCGC, NCATS curve fitting algorithms (http://ncgc.nih.gov/pub/openhts).
For `COc1ccc(C2C(C#N)=C(SCC(=O)Nc3ccc(C)cc3)NC3=C2C(=O)CC(C)(C)C3)cc1` (stereo not drawn), the Potency was inconclusive: 20.6 µM [cytotoxic, single point].
In the case of `Cc1ccc(OCC(O)Cn2c(=N)n(CCN3CCCCC3)c3ccccc32)cc1` (stereo not drawn), the Potency is reported as active: 20.6 µM.
For `COc1cc(CNCCc2ccccc2F)ccc1OCc1ccc(Cl)nc1`, the Potency was inconclusive: 29.1 µM [cytotoxic, single point].
In the case of `CC(=O)N1CCOc2ccc(S(=O)(=O)NCCc3ccccc3)cc21`, the Potency is reported as inconclusive: 23.1 µM [cytotoxic, single point].
In the case of `CC(=O)Nc1cc(C(F)(F)F)ccc1Oc1cccc(Br)c1`, the Potency is reported as inconclusive: 20.6 µM [cytotoxic, single point].
For `CCCn1nnnc1NC(=O)CSc1ccc(Cl)cc1`, the Potency was “inactive”.
For `C/C(=N\NC(=O)c1cc(Br)ccc1O)c1ccccn1`, the Potency was “inactive”.
In the case of `O=C(Nc1nc2cc(Cl)ccc2s1)C1CCCN(S(=O)(=O)c2cccc3cccnc23)C1` (stereo not drawn), the Potency is reported as inconclusive: 18.4 µM [cytotoxic, single point].
With `O=C(c1ccccc1)N(c1ccccc1)c1ccccc1O` the Potency was inconclusive: 29.1 µM [cytotoxic, single point].
With `CC1(C)CC(=O)c2c(nc(SCC(=O)Nc3nsc(-c4ccccc4)n3)c(C#N)c2-c2ccccc2)C1` the Potency was inconclusive: 10.3 µM [cytotoxic, partial curve, poor fit].
With `C[n+]1ccc(C(c2c[nH]c3ccccc23)c2cc[n+](C)c3ccccc23)c2ccccc21` the Potency was active: 1.46 µM.
In the case of `CS(=O)(=O)N(CC(=O)NCCSc1ccccn1)c1cccc2ccccc12`, the Potency is reported as inconclusive: 16.4 µM [rising, single point].
With `CCc1ccc(NC(=O)c2cnn3ccccc23)cc1` the Potency was “inactive”.
In the case of `Cc1cc(OCc2cc(C(=O)NC3CCC3)no2)cc(C)c1Cl`, the Potency is reported as “inactive”.
For `CCc1ccc(OCCNC(=O)c2ccccc2SCc2ccccc2)cc1`, the Potency was inconclusive: 29.1 µM [cytotoxic, single point].
With `CCOc1ccc(NC(=O)CN(C)C(=O)CC2CCCC2)cc1OCC` the Potency was inconclusive: 29.1 µM [cytotoxic, single point].
With `O=C(CCc1ccccn1)NC1CCCc2c1cnn2-c1ccc(F)cc1F` (stereo not drawn) the Potency was inconclusive: 18.4 µM [cytotoxic, single point].
With `CCOC(=O)C1(CCOc2ccccc2)CCN(Cc2cccc(OC)c2OC)CC1` the Potency was inconclusive: 29.1 µM [cytotoxic, single point].
In the case of `N#Cc1c2n(c3c(=S)nc[nH]c13)CCCCC2`, the Potency is reported as inconclusive: 14.6 µM [rising, partial curve, poor fit].
For `COc1ccc(CNC(=O)c2cccnc2SC)cc1OC`, the Potency was inconclusive: 29.1 µM [rising, partial curve, poor fit].
With `O=C1NC(c2ccccc2)N=C2Oc3ccccc3C=C12` (stereo not drawn) the Potency was active: 1.3 µM.
With `COCCCn1c2nc3ccccc3nc2c2c(=O)n(-c3ccccc3OC)cnc21` the Potency was “inactive”.
In the case of `C[C@H]1CN(S(=O)(=O)c2c(F)cccc2F)CCN1S(=O)(=O)c1ccc2c(c1)OCCO2`, the Potency is reported as “inactive”.
For `COc1ccccc1/C=C/c1ccc2cccc(O)c2n1`, the Potency was inconclusive: 29.1 µM [cytotoxic, single point].
For `CC1(c2ccc(OCC#N)cc2)C=C(c2ccc(OCC#N)cc2)n2nc(C(F)(F)F)nc2N1` (stereo not drawn), the Potency was inconclusive: 20.6 µM [cytotoxic, single point].
For `Cc1ccc(C(=O)NCCN2CCC(n3c(=O)[nH]c4ccccc43)CC2)cc1F`, the activity change, negative = cytotoxic was inconclusive: -1.05%.
With `O=C(CSc1nnc(NC(=O)c2cccc(Br)c2)s1)NCC1CCCO1` (stereo not drawn) the Potency was inconclusive: 0.291 µM [rising, full curve, poor fit].
With `O=C(Cn1nc(C(=O)O)c2ccccc2c1=O)Nc1cc(S(=O)(=O)N2CCCCC2)ccc1Cl` the Potency was “inactive”.
With `COc1ccc(CCNC(=O)C(=O)NCc2ccccc2)cc1OC` the Potency was active: 20.6 µM.
For `COC(=O)c1cc(NC(=O)COC(=O)C2COc3ccccc3O2)cc(C(=O)OC)c1` (stereo not drawn), the Potency was “inactive”.
With `CCOC(=O)C(C)n1nc(/C=C/c2ccccc2)ccc1=O` (stereo not drawn) the Potency was inconclusive: 29.1 µM [cytotoxic, single point].
In the case of `Cc1ccc(C)c(Nc2nn3c(=O)c4ccc(C(=O)NCc5ccccc5)cc4nc3s2)c1`, the Potency is reported as inconclusive: 8.2 µM [cytotoxic, partial curve, poor fit].
For `CC(NCC(O)COCCC12CC3CC(CC(C3)C1)C2)c1ccccc1` (stereo not drawn), the Potency was inconclusive: 23.1 µM [cytotoxic, single point].
